# Results as given in article PMC8058061.
# Sequences of proteins named here, by UniProt entry; tags and fusion partners are left off.
# UniProt P51863: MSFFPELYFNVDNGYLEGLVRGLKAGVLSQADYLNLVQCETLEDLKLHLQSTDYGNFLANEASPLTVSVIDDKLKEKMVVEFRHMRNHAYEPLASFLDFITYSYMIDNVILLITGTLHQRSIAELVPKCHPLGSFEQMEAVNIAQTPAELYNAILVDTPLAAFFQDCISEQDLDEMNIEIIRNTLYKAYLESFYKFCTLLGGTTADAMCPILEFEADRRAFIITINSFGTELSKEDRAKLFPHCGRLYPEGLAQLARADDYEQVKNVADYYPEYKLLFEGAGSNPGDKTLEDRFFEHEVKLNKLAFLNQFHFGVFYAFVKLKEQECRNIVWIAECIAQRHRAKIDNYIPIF
# Results are given in words; binding and its absence hold for the method and conditions named. Binding seen in cells or lysates may run through a third protein. Some binding calls cover weakened binding; strength is not graded here.
# B1: DDRGK domain-containing protein 1 (protein, UniProt Q80WW9 1-315)
# chain: MVGPWVYLVAAVLLIGLILFLTRSRGRAAAADGEPLHNEEERAGAGQVGRSLPQESEEQRTGSRPRRRRDLGSRLQAQRRAQRVAWEDGDENVGQTVIPAQEEEGIEKPAEVHPTGKIGAKKLRKLEEKQARKAQREAEEAEREERKRLESQREAEWKKEEERLRLKEEQKEEEERKAQEEQARREHEEYLKLKEAFVVEEEGVSETMTEEQSHSFLTEFINYIKKSKVVLLEDLAFQMGLRTQDAINRIQDLLTEGTLTGVIDDRGKFIYITPEELAAVANFIRQRGRVSITELAQASNSLISWGQDLPAQASA
# Molecular target: Atp6v0d1 (mouse (endogenous in MEFs)) (UniProt P51863)
# Assay: co-IP; whole-cell lysates of untreated MEFs; immunoprecipitation with anti-Atp6v0d1 at 4 °C overnight, Protein A/G magnetic beads 1 h, immunoblotting with anti-DDRGK1
binder,measurement,value
B1,binding,binds
